Results are given in words; binding and its absence hold for the method and conditions named. Some entries that bind do so weakly or less than the wild type.
Columns and labels:
[1] = target: sE2 pairwise combination of designs ΔHVR1 and H445P (Hepatitis C virus isolate H77C) (UniProt P27958); experiment: BLI (Octet RED96), His6-tagged sE2 on Ni-NTA biosensors, CD81-LEL in solution
[2] = target: sE2 pairwise combination of designs H445P and Y632NS (Hepatitis C virus isolate H77C) (UniProt P27958); experiment: as above

B1: CD81 large extracellular loop (LEL) (receptor)
chain: FVNKDQIAKDVKQFYDQALQQAVVDDDANNAKAVVKTFHETLDCCGSSTLTALTTSVLKNNLCPSGSNIISNLFKEDCHQKIDDLFSGK
binding [1]: binds | binding [2]: binds
